# Earlier results in publication PMC9405847, “Design, Synthesis and Pharmacological Evaluation of Novel Conformationally Restricted N-arylpiperazine Derivatives Characterized as D2/D3 Receptor Ligands, Candidates for the Treatment of Neurodegenerative Diseases” (Biomolecules, 2022).
# Target: D3 receptor
# Settings: cited from earlier work
smiles,measurement,value
O=C1CCc2ccc(OCCCCN3CCN(c4cccc(Cl)c4Cl)CC3)cc2N1 [aripiprazole],Ki,800 pM
